Measured values reported in patent US11690378B2, “Substituted pyridines as noxious arthropod control agents” (SUMITOMO CHEMICAL COMPANY, LIMITED, priority 2017, dated 2023).
Some entries share one result that the patent states for a list of compounds. At least one compound was matched to its structure with a doubt left.

These molecules were tested on diamondback moth (Plutella xylostella) (assay: Test method 4: sprayed cabbage leaf, diamondback moth second instar larvae, mortality). Details: 500 ppm, spray 20 mL/seedling, after 5 days, 25° C.
Format: in vivo

Question: Which mortality of insects does the source give for `CCS(=O)(=O)c1cc(C(F)(F)F)cnc1-n1nc2cc(C(F)(F)F)ccn2c1=O` [compound 5] here?
Answer: Its mortality of insects is at least 80%.

Each molecule was assayed on diamondback moth (Plutella xylostella) (assay: Test Example 5 (Test method 5; text prints Test method 3): sprayed cabbage seedling, diamondback moth third instar larvae, mortality). Details: 200 ppm, Test Example 5, printed as 'according to the Test method 3', after 5 days, 25° C.
Format: in vivo

Question: How did the mortality of insects turn out when `CCn1c2ncc(C(F)(F)F)cc2c(=O)n1-c1ncc(C2CC2)cc1S(=O)(=O)CC` [compound 27] was run?
Answer: The mortality of insects was at least 90%.

Question: Which mortality of insects does the source give for `CCS(=O)(=O)c1cc(C(F)(F)F)cnc1-n1cc2ccc(C(F)(F)F)cn2c1=O` [compound 10] here?
Answer: The mortality of insects was at least 90%.

Question: `CCS(=O)(=O)c1cc(C(F)(F)F)cnc1-n1nc2cc(C(F)(F)F)ccn2c1=O` [compound 5] was tested. Which mortality of insects did it give?
Answer: The mortality of insects was at least 90%.

Each molecule was assayed on housefly (Musca domestica) (assay: Test method 7: treated filter paper with sucrose bait, housefly female adults, mortality). Details: 500 ppm, 0.7 ml on filter paper, after 24 hours, 25° C.
Format: in vivo

Question: With `CCS(=O)(=O)c1cc(-c2ccc(C#N)cc2)cnc1-n1nc2cnc(C(F)(F)F)cn2c1=O` [compound 23] as the molecule, how does the mortality of insects read?
Answer: Its mortality of insects is at least 100%.

Question: `CCS(=O)(=O)c1cc(-c2ccc(F)cc2)cnc1-n1cc2ccc(C(F)(F)F)cn2c1=O` [compound 11] was tested. Which mortality of insects did it give?
Answer: Its mortality of insects is at least 100%.

Question: With `CCS(=O)(=O)c1cc(C)cnc1-n1nc2cnc(C(F)(F)F)cn2c1=O` [compound 21] as the molecule, how does the mortality of insects read?
Answer: The mortality of insects was at least 100%.

Question: How did the mortality of insects turn out when `CCS(=O)(=O)c1cc(N(C)C(=O)OC(C)(C)C)cnc1-n1nc2cnc(C(F)(F)F)cn2c1=O` [compound 25] was run?
Answer: The mortality of insects was at least 100%.

Question: For `CCS(=O)(=O)c1cc(C2CC2)cnc1-n1nc2cnc(C(F)(F)F)cn2c1=O` [compound 15], which mortality of insects is on record?
Answer: Its mortality of insects is at least 100%.

Question: How did the mortality of insects turn out when `CCS(=O)(=O)c1cc(C2CC2)cnc1-n1nc2ccc(C(F)(F)F)cn2c1=O` [compound 4] was run?
Answer: The mortality of insects was at least 100%.

Each molecule was assayed on German cockroach (Blattella germanica) (assay: Test method 8: treated filter paper with sucrose bait, German cockroach male adults, mortality). Details: 500 ppm, 0.7 ml on filter paper, after 6 days, 25° C.
Format: in vivo

Question: Which mortality of insects does the source give for `CCS(=O)(=O)c1cc(-c2ccc(C#N)cc2)cnc1-n1nc2cnc(C(F)(F)F)cn2c1=O` [compound 23] here?
Answer: Its mortality of insects is at least 100%.

Question: For `CCS(=O)(=O)c1cc(-c2ccc(F)cc2)cnc1-n1nc2cnc(C(F)(F)F)cn2c1=O` [compound 19], which mortality of insects is on record?
Answer: Its mortality of insects is at least 100%.
